Data as given in PubChem BioAssay AID504764 (Drosophila RNAi Screening Center, 2011)
The screen tested about 22,000 reagents; shown is an unselected part of those with a known target gene and a result. Over the whole deposit, 403 (1.9%) got an active call. 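Unnormalised raw counts per well; ratio z-scores behind the hit calls and whether each hit raises or lowers signal are not deposited.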 Reagents against one gene are numbered here. A plus sign joins genes that one reagent is predicted to hit. The record does not give: the amount of reagent.

- Purpose: 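Genes whose knock-down alters Notch-dependent transcription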 (primary screen)
- Cells: Drosophila Kc167 cells
- Reagents: long dsRNA against Drosophila genes
- Time to read-out: about 5 days (4 days dsRNA, then 24 h after transfection)
- Conditions: transfection of constitutively active membrane-tethered Notch lacking the extracellular domain, read 24 h later
- Read-out: 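Firefly luciferase from an E(spl)m3 reporter with active Notch, plus control-promoter and uninduced reporter wells for normalisation; unnormalised counts, duplicate wells a and b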
- Reading the numbers: induced reporter light, run 1, well a and induced reporter light, run 1, well b: higher = more light from the Notch target reporter with active Notch; control promoter light, run 1, well a and control promoter light, run 1, well b: higher = more light from the viral control promoter (cell number, transfection, viability); uninduced reporter light, run 1, well a: higher = more light from the Notch target reporter without active Notch
- Hit rule: 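Wells with low control signal or poorly matching duplicates excluded; duplicates averaged; per source plate, z beyond ±2 for induced/control log2 ratio or beyond ±1.8 for induced/uninduced marks a hit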
- Meaning of the calls: active = modifier hit (raised or lowered Notch signal); inactive = not a hit

no.	gene	reagent no.	induced reporter light, run 1, well a	induced reporter light, run 1, well b	control promoter light, run 1, well a	control promoter light, run 1, well b	uninduced reporter light, run 1, well a	activity call
1	Dhc1	1	1.02e5	99985	87215	72680	5375	inactive
2	spz5	1	91900	83615	1.37e5	1.56e5	7410	inactive
3	Dic1	1	1.31e5	1.46e5	1.21e5	1.12e5	11870	inactive
4	Ect3	1	97365	1.53e5	1.22e5	1.21e5	6382	inactive
5	CG8888	1	1.90e5	1.47e5	1.45e5	1.77e5	12260	inactive
6	CG8888	2	63740	1.27e5	1.42e5	1.82e5	12310	inactive
7	Taf1	1	61045	68275	47840	50385	4460	inactive
8	Tango6	1	1.24e5	1.26e5	1.05e5	1.13e5	9475	inactive
9	Ets21C	1	94265	1.06e5	93020	51770	9425	inactive
10	CG31642	1	1.08e5	1.01e5	94345	93965	6235	inactive
11	CG7607	1	1.27e5	1.34e5	2.62e5	1.64e5	7985	inactive
12	CG14356	1	2.68e5	2.69e5	2.52e5	2.28e5	20550	inactive
13	RASSF8	1	1.57e5	1.44e5	2.02e5	2.08e5	11235	inactive
14	tRNA:Leu-CAA-2-3	1	1.81e5	1.69e5	1.81e5	1.79e5	15982	inactive
15	CG4686	1	1.77e5	1.65e5	1.66e5	1.75e5	12230	inactive
16	RnrL	1	1.99e5	2.21e5	1.29e5	1.53e5	17980	inactive
17	Cht7 + tRNA:Cys-GCA-1-4 + tRNA:Lys-CTT-1-13	1	1.57e5	1.72e5	1.47e5	1.79e5	12570	inactive
18	Tdc1	1	82000	65995	82450	98785	4300	inactive
19	Caf1-180	1	87245	67500	97740	80785	7615	inactive
20	Madm	1	1.06e5	88885	64780	48520	6392	inactive
21	Elba3	1	1.41e5	1.36e5	1.43e5	1.84e5	14345	inactive
22	CG13737	1	2.09e5	1.64e5	2.40e5	1.66e5	12495	inactive
23	CG33230	1	1.11e5	1.21e5	2.28e5	2.36e5	11165	inactive
24	SamDC	1	2.03e5	1.74e5	1.68e5	1.61e5	17470	inactive
25	CG7342	1	1.56e5	1.80e5	2.17e5	2.10e5	15260	inactive
26	Sem1	1	17230	14878	16060	17232	2630	inactive
27	snsl	1	1.82e5	1.26e5	1.97e5	1.79e5	8965	inactive
28	Ir62a	1	1.67e5	1.16e5	1.63e5	1.43e5	6425	inactive
29	Drs	1	1.36e5	1.28e5	2.20e5	1.96e5	10630	inactive
30	CG8509	1	1.59e5	1.72e5	1.92e5	1.74e5	11610	inactive
31	Nckx30C	1	1.53e5	1.94e5	97175	1.18e5	20755	inactive
32	Nckx30C	2	1.19e5	1.41e5	86150	97470	16785	inactive
33	Nckx30C	3	1.72e5	1.98e5	1.05e5	1.01e5	21145	inactive
34	Nckx30C	4	68725	87160	34800	44340	12080	inactive
35	Ubc6	1	82220	70730	62705	60520	4940	inactive
36	Acn	1	1.50e5	1.51e5	93375	1.16e5	12920	inactive
37	l(2)k05911	1	1.69e5	1.69e5	2.59e5	2.76e5	13975	inactive
38	gfzf	1	90495	1.52e5	87400	92215	11690	inactive
39	Su(var)205	1	1.99e5	1.92e5	1.52e5	1.75e5	17145	inactive
40	Srp19	1	1.72e5	1.34e5	1.81e5	1.39e5	6915	inactive
41	CG12560	1	1.32e5	1.95e5	75075	1.10e5	21065	inactive
42	CG11698	1	2.27e5	2.23e5	2.74e5	3.35e5	11625	inactive
43	CG5381	1	1.33e5	1.62e5	1.03e5	92380	20000	inactive
44	CanA-14F	1	14800	11330	10840	12340	4465	inactive
45	Rsph3	1	93385	1.11e5	72575	39925	10815	inactive
46	Rsph3	2	2.70e5	2.89e5	3.15e5	3.20e5	20500	inactive
47	CG15386 + CG42371	1	1.14e5	1.06e5	95065	58155	9875	inactive
48	Ndae1	1	2.07e5	2.08e5	2.32e5	2.22e5	11885	inactive
49	Ndae1	2	1.95e5	1.64e5	1.49e5	1.94e5	16915	inactive
50	CG34056	1	1.22e5	1.50e5	3.47e5	2.55e5	6460	inactive
51	Deaf1	1	1.00e5	1.06e5	96340	1.01e5	6685	inactive
52	Deaf1	2						active
53	CG14079	1	1.12e5	84240	1.19e5	1.10e5	7690	inactive
54	l(2)k09022	1	1.56e5	1.78e5	1.80e5	2.13e5	14275	inactive
55	CG5863	1	2.02e5	2.24e5	2.01e5	1.75e5	16115	inactive
56	CG6701	1	1.64e5	1.91e5	1.82e5	1.83e5	12945	inactive
57	CG4676	1	1.16e5	95400	1.45e5	1.53e5	9990	inactive
58	Gr28a	1	71110	59515	62765	71045	4375	inactive
59	BTBD9	1	1.42e5	1.20e5	3.03e5	2.95e5	9470	inactive
60	Polr3A	1	37220	40160	33500	35405	6692	inactive
61	ear	1	86150	80685	35905	32540	7150	inactive
62	Dpp10	1	1.55e5	1.19e5	1.90e5	1.74e5	11660	inactive
63	Dpp10	2	2.04e5	1.38e5	2.07e5	2.10e5	8795	inactive
64	bnb	1	1.38e5	1.01e5	98795	55460	9190	inactive

10 entries already listed, ordered by “induced reporter light, run 1, well b”, highest first:
gene	reagent no.	induced reporter light, run 1, well a	induced reporter light, run 1, well b	control promoter light, run 1, well a	control promoter light, run 1, well b	uninduced reporter light, run 1, well a	activity call
CG7342	1	1.56e5	1.80e5	2.17e5	2.10e5	15260	inactive
SamDC	1	2.03e5	1.74e5	1.68e5	1.61e5	17470	inactive
CG13737	1	2.09e5	1.64e5	2.40e5	1.66e5	12495	inactive
Elba3	1	1.41e5	1.36e5	1.43e5	1.84e5	14345	inactive
snsl	1	1.82e5	1.26e5	1.97e5	1.79e5	8965	inactive
CG33230	1	1.11e5	1.21e5	2.28e5	2.36e5	11165	inactive
Madm	1	1.06e5	88885	64780	48520	6392	inactive
Caf1-180	1	87245	67500	97740	80785	7615	inactive
Tdc1	1	82000	65995	82450	98785	4300	inactive
Sem1	1	17230	14878	16060	17232	2630	inactive
